Source: paper PMC9262611
No constants are given. Whether binding was seen depends on the method and setting. In cells and extracts the contact can be indirect. Here binding means that the protein was enriched with, or labelled near, the bait; the list need not be complete.

Target: AtNusG:MYC (AtNusG:MYC_WT transgenic lines) (Arabidopsis thaliana)
Assay: affinity purification with mass spectrometry; total leaf proteins of three-week-old AtNusG:MYC_WT transgenic lines, anti-MYC beads overnight, washes with 150 mM NaCl, 0.1% Triton-X100; LC-MS/MS

Binder	binding
PRPS10, endogenous (protein, UniProt Q9LK61 57-191) AVPDTLDPTPEILDEPASEVPSSSSISVDADKMAPKQKIRIKLRSYWVPLIEDSCKQILDAARNTNAKTMGPVPLPTKKRIYCVLKSPHVHKDARFHFEIRTHQRMIDILYPTAQTIDSLMQLDLPAGVDVEVKL	binds
TRX z, endogenous (protein, UniProt Q9M7X9 82-183) AQELQELVKGDRKVPLIVDFYATWCGPCILMAQELEMLAVEYESNAIIVKVDTDDEYEFARDMQVRGLPTLFFISPDPSKDAIRTEGLIPLQMMHDIIDNEM	binds
FLN2, endogenous (protein, UniProt F4I0K2 45-614) AAGRRKLSESAPLEEEGNDGNGAVVGKKPSKSVKRTTKKKVVVKDEPLEEISEFLVDNDDVLDKESIVSALKPKKTRTRKKAAAASSDVEEVKTEKKVRRKRTVKKDKDVEDDLATIMDAEVSDVEEALAVESTDTESEEEEIDLSKHEGEDISHTYGWPPLVCCFGSAQHAFVPSGRPANRLLDYELHERMRDAKWAPEKYIRAPGGCAGGVAIALASLGGKVAFMGKLGADDYGQAMLYYLNVCKVQTRSVKIDGKRVTACSTMKISKRGRLKSTCIKPCAEDSLSKSEINVDVLKEAKMFYFSTHSLLDKKMMSTTIQAIKISKQLGNVIFYDLNLPLPLWHSSEETKSFIQEVWNLADVIEITKQELEFLCGIEPTEEFDTENNDISKFVHYPPETVEQLWHENLKVLFVTNGTSKIHYYTKEHNGAVSGMEDVPITPFTRDMSASGDGIVAGLIRMLTVQPDLMNNKGYLERTARYAIECGIIDQWLLAQTRGYPPKDDMEEEEDDEEEDEVESDPNGIRSITEKEYRTSKPYDEPDGPYVMKPVEEREYKKLELVGSMFEDGSL	binds
FLN1, endogenous (protein, UniProt Q9M394 39-471) ASINGSGITNGAAAETTSKPSRKGRKKKQTSTVIEKDNTETDPELNPELADYDDGIEFPYDDPPLVCCFGAVQKEFVPVVRVHDNPMHPDMYSQWKMLQWDPPEFGRAPGGPPSNVAISHVRLGGRAAFMGKVGEDDFGDELVLMMNQERVQTRAVKFDENSKTACTRVKIKFKDGKMMAETVKEPPEDSLFASELNLAVLKEARIFHFNSEVLTSPTMQSTLFTAIQWSKKFGGLIFFDLNLPLPLWRSRNETRKLIKKAWNEANIIEVSQQELEFLLDEDYYERRRNYTPQYFAEDFDQTKNRRDYYHYTPEEIKSLWHDKLKLLVVTDGTLRLHYYTPTFDGVVIGTEDVLITPFTCDRTGSGDAVVAGIMRKLTTCPEMFEDQDVMERQLRFAVAAGIIAQWTIGAVRGFPTESATQNLKEQVYVPSMW	binds
pTAC2, endogenous (protein, UniProt Q9S7Q2 67-862) VEKGKYSYDVESLINKLSSLPPRGSIARCLDIFKNKLSLNDFALVFKEFAGRGDWQRSLRLFKYMQRQIWCKPNEHIYTIMISLLGREGLLDKCLEVFDEMPSQGVSRSVFSYTALINAYGRNGRYETSLELLDRMKNEKISPSILTYNTVINACARGGLDWEGLLGLFAEMRHEGIQPDIVTYNTLLSACAIRGLGDEAEMVFRTMNDGGIVPDLTTYSHLVETFGKLRRLEKVCDLLGEMASGGSLPDITSYNVLLEAYAKSGSIKEAMGVFHQMQAAGCTPNANTYSVLLNLFGQSGRYDDVRQLFLEMKSSNTDPDAATYNILIEVFGEGGYFKEVVTLFHDMVEENIEPDMETYEGIIFACGKGGLHEDARKILQYMTANDIVPSSKAYTGVIEAFGQAALYEEALVAFNTMHEVGSNPSIETFHSLLYSFARGGLVKESEAILSRLVDSGIPRNRDTFNAQIEAYKQGGKFEEAVKTYVDMEKSRCDPDERTLEAVLSVYSFARLVDECREQFEEMKASDILPSIMCYCMMLAVYGKTERWDDVNELLEEMLSNRVSNIHQVIGQMIKGDYDDDSNWQIVEYVLDKLNSEGCGLGIRFYNALLDALWWLGQKERAARVLNEATKRGLFPELFRKNKLVWSVDVHRMSEGGMYTALSVWLNDINDMLLKGDLPQLAVVVSVRGQLEKSSAARESPIAKAAFSFLQDHVSSSFSFTGWNGGRIMCQRSQLKQLLSTKEPTSEESENKNLVALANSPIFAAGTRASTSSDTNHSGNPTQRRTRTKKELAGSTA	binds
FSD2 (PAP9), endogenous (protein, UniProt Q9LU64 47-305) GVITAGFELKPPPYPLDALEPHMSRETLDYHWGKHHKTYVENLNKQILGTDLDALSLEEVVLLSYNKGNMLPAFNNAAQAWNHEFFWESIQPGGGGKPTGELLRLIERDFGSFEEFLERFKSAAASNFGSGWTWLAYKANRLDVANAVNPLPKEEDKKLVIVKTPNAVNPLVWDYSPLLTIDTWEHAYYLDFENRRAEYINTFMEKLVSWETVSTRLESAIARAVQREQEGTETEDEENPDDEVPEVYLDSDIDVSEVD	binds
FSD3, endogenous (protein, UniProt Q9FMX0 42-263) GGLKVEAYYGLKTPPYPLDALEPYMSRRTLEVHWGKHHRGYVDNLNKQLGKDDRLYGYTMEELIKATYNNGNPLPEFNNAAQVYNHDFFWESMQPGGGDTPQKGVLEQIDKDFGSFTNFREKFTNAALTQFGSGWVWLVLKREERRLEVVKTSNAINPLVWDDIPIICVDVWEHSYYLDYKNDRAKYINTFLNHLVSWNAAMSRMARAEAFVNLGEPNIPIA	binds
AtMurE, endogenous (protein, UniProt F4I3P9 41-772) AAGPARRNSYPNPADDDPPEAPEDSMHGVSKFQQIQRQAARARKLEEEDFEKNRNTYLSAIADVEDAAETGRDDEESGGDLFSDIDRAISMKRSEFVKQGLLKPNPPKTASLKKIGEEGNEEEGDVTDDVDELDEEEVVDLDEIDKLTGLTEISDEEDWVDEEGNTRINKKKEFGSDHQFEFDLDDFGESKARIVEPKFKMCLAELLDESKVVPISVYGDLDVEITGIQHDSRGVSAGDLFVCCLGSENFLSEADKRGAVAVVASKEIDIEDTLGCRALVIVEDTNAVLAALASSFYRHPSKNMSVIGVTGTDGKTTTTYLIKSLYEAMGVRTGMFSTVSCYIHGDNKLDTPNATMNPDAVLVQSLMAKMLHNGTESLVMEASPQELALGKCDEVDFDIAVFTNLTRENTDFRGTDEEYRDAEAKLFSRMVDPERHRKVVNIDDPNAAFFVQQGNPNVPVVTFAMENTKADVHPLKFELSLFETQVLVNTPQGILEISSGLLGRHNIYNILAAVAVGIAVGAPLEDIVRGVEEVDAVPGRCELIDEEQAFGVIVDHANTPDGLSRLLDSIRELKPRRIITVIGCEGENERGKRPLMTKIATEKSDVTMLTSDNPRNEDPLDILDDMLSGIGWTMQEYLKHGEHDYYPPLANGHRLFLHDIRRVAVRCAVAMGEEGDMVVVAGKGHEAYQLEGEKKEFYDDREECREALQYVDELHQAGIDTSEFPWRLPESH	binds

Now from value to binder:

binding	Binder
binds	pTAC12, endogenous (protein, UniProt F4IHY7 31-527) VKCGFPLKTLHAGITSRDRSLRHCIKCKKEDGDGDVSEGSKKSEEGFEYVTVERHPYHSYMDSTSGKLEPASGARASIPGEDYWPEGTSSRVRAARAPQPAGESSSFPSYGKNPGSRRKKNRKATEENVTVETNDEVSDSEDSSEEEENDSSDGFVTYKNEFEREEEETGFELDKKLGRPHPFIDPTKKKQIEKTLTSDESWWNWRKPEKEQWSRWQRRRPDVETVFLKAMAETGQVKLYGEEPTLTETSLYRARRHLFKEERLQAERERLAKEGPMAFYSEWVKAWKRDTSREAVQKHFEETGEDENTQLIEMFSHQTDREYRIMMGTDIRIKRDPLAMRMREDQIKQIWGGDPVYPTINYIQDPNAVMDFRGPDFHEPTPNMLSYLKENGKVISREMHEALLTKEKTEQLEVPDMDDAMAQAVDIGENDDDEDDADVEKDDEKVPRNWSVLKETPELRTAKPKPKKEGRMSLDEAVDDAENLTDFLMDFEEETDP
binds	pTAC6, endogenous (protein, UniProt Q9XI19 60-328) ADGGGADEYDMDDEEVEEVDNKKDYDVEYDPLAAAIAAAGGGGDGDIAFVQSKSFISTQGWDSDMVVDYRINEDEFHKLSLMDCDFFIRKPPDPDNDVYDFREMYVTPPDTDIYSIPRVLAPMPQKYIRCAMSDYGCYNVTEPPIDAPRDPLYKSEREISKVFLTKHYRNRRTNDPEFVLDLEEIYVIDSKTKSITRARVLVTVPGGRKRDRKDDLLVIRDNGTSFKIIHVGERDDPTTVIEREEWTKTREDMEKHLRKLRDFSVSNWF
binds	pTAC10, endogenous (protein, UniProt F4JF21 41-668) GFSSDEFPVDETFLEKFGPKDKDTEDEARRRNWIERGWAPWEEILTPEADFARKSLNEGEEVPLQSPEAIEAFKMLRPSYRKKKIKEMGITEDEWYAKQFEIRGDKPPPLETSWAGPMVLRQIPPRDWPPRGWEVDRKELEFIREAHKLMAERVWLEDLDKDLRVGEDATVDKMCLERFKVFLKQYKEWVEDNKDRLEEESYKLDQDFYPGRRKRGKDYEDGMYELPFYYPGMVCEGTVTTLHLYQGAFVDIGGVHEGWVPIKGNDWFWIRHFIKVGMHVIVEITAKRDPYRFRFPLELRFVHPNIDHMIFNKFDFPPIFHRDGDTNPDEIRRDCGRPPEPRKDPGSKPEEEGLLSDHPYVDKLWQIHVAEQMILGDYEANPAKYEGKKLSELSDDEDFDEQKDIEYGEAYYKKTKLPKVILKTSVKELDLEAALTERQHHNKLMMEAKARGEGYKIDKLRRNIEMDEYDFLHWRRSLEEREALLRDISSRQALGLPLEEPGRYKPGSFFGKDQYDPTSALYQYDYWGEPKNSEISKQERMKDAHNKSIVGKGNVWYDMSYDDAIKQTIEKRKEGSTLASQEEETESEEEEEDDDDFDDFDYSILSDESSIGYSEQQPLVNGTQVLTD
binds	pTAC14, endogenous (protein, UniProt Q84JF5 63-483) ASEESSSSELETADPDFYKIGYVRSVRAYGVEFKEGPDGFGVYASKDIEPRRRARVIMEIPLELMITIRQKHPWMFFPDIVPIGHPIFDIINSTDPEIDWDIRLACLLLFSFDRDDHFWRLYGDFLPAADECSSLLLATEEDLAELQDPDLVSTIRQQQKRILDFWEKNWHSGVPLKIKRLAEDPERFIWAVSMAQTRCISMQTRVGALVQELNMMIPYADMLNHSFEPNCFLHWRPKDRMLEVMSNAGQDIKKGEEMTINYMPGQKNNMLMERYGFSTPVNPWDAIKFSGDSRIHLNSFLSVFNIYGLPEEYYHDSELSRGDTFVDGAVIAAARTLPTWSDIDLPPIPSAERKAVKELQDECRKMLAEYPTTAEQDQKLLDSMSEARTTFATAVKYRMHRKMFIGKIIKALDIYQERLLY
